Results as given in PMC11377572.
These are yes or no findings as the source states them, for the method shown. In cells and extracts the contact can be indirect. Some binding calls cover weakened binding; strength is not graded here.

By UniProt entry, the sequences of proteins in these tests, tags left out.
UniProt Q6A4J8: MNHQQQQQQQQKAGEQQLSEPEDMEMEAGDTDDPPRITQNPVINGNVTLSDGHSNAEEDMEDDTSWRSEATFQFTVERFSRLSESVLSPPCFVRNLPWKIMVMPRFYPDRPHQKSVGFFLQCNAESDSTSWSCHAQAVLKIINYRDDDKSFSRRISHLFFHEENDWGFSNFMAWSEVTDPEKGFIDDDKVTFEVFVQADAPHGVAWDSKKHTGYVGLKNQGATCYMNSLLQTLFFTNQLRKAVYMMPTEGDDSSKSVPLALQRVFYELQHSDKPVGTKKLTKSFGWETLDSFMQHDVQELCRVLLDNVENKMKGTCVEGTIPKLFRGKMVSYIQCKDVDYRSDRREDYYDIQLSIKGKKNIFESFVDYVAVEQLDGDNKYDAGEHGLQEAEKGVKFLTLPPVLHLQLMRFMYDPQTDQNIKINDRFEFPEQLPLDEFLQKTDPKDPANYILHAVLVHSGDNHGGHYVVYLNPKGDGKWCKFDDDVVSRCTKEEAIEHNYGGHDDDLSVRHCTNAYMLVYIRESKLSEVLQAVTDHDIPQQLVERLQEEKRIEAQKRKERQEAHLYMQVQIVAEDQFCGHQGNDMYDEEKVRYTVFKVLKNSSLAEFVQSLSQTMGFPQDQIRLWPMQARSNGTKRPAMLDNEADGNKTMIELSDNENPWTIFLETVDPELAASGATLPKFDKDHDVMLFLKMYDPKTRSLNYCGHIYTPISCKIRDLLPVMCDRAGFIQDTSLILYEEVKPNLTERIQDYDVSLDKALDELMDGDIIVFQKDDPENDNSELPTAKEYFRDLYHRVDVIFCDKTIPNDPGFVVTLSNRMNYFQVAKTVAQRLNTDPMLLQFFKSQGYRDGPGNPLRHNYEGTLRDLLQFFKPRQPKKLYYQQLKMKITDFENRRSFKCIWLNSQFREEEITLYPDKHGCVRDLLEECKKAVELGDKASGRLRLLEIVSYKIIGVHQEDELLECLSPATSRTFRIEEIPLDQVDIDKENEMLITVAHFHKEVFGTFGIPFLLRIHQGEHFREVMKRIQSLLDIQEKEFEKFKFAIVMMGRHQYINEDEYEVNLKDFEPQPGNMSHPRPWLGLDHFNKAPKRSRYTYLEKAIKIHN
UniProt Q8CFE3: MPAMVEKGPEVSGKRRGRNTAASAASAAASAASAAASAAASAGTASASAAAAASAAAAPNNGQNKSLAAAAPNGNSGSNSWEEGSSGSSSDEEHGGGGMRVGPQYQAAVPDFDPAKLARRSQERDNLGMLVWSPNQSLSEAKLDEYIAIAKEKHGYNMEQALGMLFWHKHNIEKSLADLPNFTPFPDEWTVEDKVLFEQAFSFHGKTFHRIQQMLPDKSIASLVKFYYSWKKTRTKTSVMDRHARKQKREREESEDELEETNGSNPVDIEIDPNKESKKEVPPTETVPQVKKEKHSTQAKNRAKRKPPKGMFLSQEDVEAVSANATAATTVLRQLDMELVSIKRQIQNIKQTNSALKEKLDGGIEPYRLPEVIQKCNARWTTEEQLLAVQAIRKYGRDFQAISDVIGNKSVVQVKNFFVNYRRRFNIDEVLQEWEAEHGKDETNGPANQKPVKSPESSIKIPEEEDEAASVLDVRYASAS
UniProt Q8C796: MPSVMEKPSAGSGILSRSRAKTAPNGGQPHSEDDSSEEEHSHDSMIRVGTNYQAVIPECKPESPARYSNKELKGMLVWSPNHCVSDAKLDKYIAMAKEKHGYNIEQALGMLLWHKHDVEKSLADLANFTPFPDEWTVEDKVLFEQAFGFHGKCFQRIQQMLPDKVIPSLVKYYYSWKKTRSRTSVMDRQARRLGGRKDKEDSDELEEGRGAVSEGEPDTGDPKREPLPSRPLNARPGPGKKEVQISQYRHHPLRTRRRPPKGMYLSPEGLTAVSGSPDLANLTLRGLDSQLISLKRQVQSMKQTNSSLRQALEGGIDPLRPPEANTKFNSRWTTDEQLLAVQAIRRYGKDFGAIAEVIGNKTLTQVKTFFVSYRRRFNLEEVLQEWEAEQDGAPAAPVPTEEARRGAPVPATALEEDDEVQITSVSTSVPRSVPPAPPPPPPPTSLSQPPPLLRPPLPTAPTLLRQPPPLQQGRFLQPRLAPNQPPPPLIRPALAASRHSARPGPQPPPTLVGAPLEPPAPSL

Tests used:
[1] = molecular target: ubiquitin-specific peptidase 7 (USP7), endogenous in mouse ESCs (mouse (endogenous in CCE mouse ESCs)) (UniProt Q6A4J8); test: co-IP; USP7 immunoprecipitation from whole cell extract of Lsd1 KO mouse ESCs (DNMT1 and UHRF1 protein levels are low in these cells), immunoblots
[2] = molecular target: RCOR1, endogenous in mouse ESCs (mouse (endogenous in CCE mouse ESCs)) (UniProt Q8CFE3); test: co-IP; immunoprecipitation with RCOR1 (Novus NBP3-16225, 5 ug) or RCOR2 (Proteintech 23969-1-AP, 5 ug) antibodies from mouse ESC extract, immunoblots (Supplementary Fig. 9E, F)
[3] = molecular target: RCOR2, endogenous in mouse ESCs (mouse (endogenous in CCE mouse ESCs)) (UniProt Q8C796); test: as above
[4] = molecular target: ubiquitin-specific peptidase 7 (USP7), endogenous in mouse ESCs (mouse (endogenous in CCE mouse ESCs)) (UniProt Q6A4J8); test: co-IP; USP7 immunoprecipitation (anti-USP7, Invitrogen PA5-34911, 4 ug; protein A magnetic beads) from whole cell extract of WT, LSD1^WT and LSD1^MUT mouse ESCs, immunoblots; also with DNase or RNase treatment and after TSA or SAHA treatment of the cells
[5] = molecular target: HDAC1, endogenous in mouse ESCs (mouse (endogenous in CCE mouse ESCs)), O09106; test: co-IP; HDAC1 immunoprecipitation (anti-HDAC1, Abcam ab19845, 4 ug) from whole cell extract of WT mouse ESCs, immunoblots of DNMT1, UHRF1 and LSD1; conditions: remark: other sources report otherwise

Row | binding [1] | binding [2] | binding [3] | binding [4] | binding [5] | Binder
1 | binds weakly | no binding | no binding | binds |  | Ubiquitin-like, with PHD and RING finger domains 1 (UHRF1), endogenous in mouse ESCs (protein, UniProt Q8VDF2 1-782) MWIQVRTMDGKETHTVNSLSRLTKVQELRKKIEEVFHVEPQLQRLFYRGKQMEDGHTLFDYDVRLNDTIQLLVRQSLALPLSTKERDSELSDSDSGYGVGHSESDKSSTHGEGAAEADDKTVWEDTDLGLYKVNEYVDVRDNIFGAWFEAQVVQVQKRALSEDEPCSSSAVKTSEDDIMYHVKYDDYPEHGVDIVKAKNVRARARTVIPWENLEVGQVVMANYNVDYPRKRGFWYDVEICRKRQTRTARELYGNIRLLNDSQLNNCRIMFVDEVLMIELPKERRPLIASPSQPPPALRNTGKSGPSCRFCKDDENKPCRKCACHVCGGREAPEKQLLCDECDMAFHLYCLKPPLTSVPPEPEWYCPSCRTDSSEVVQAGEKLKESKKKAKMASATSSSRRDWGKGMACVGRTTECTIVPANHFGPIPGVPVGTMWRFRVQVSESGVHRPHVAGIHGRSNDGAYSLVLAGGYEDDVDNGNYFTYTGSGGRDLSGNKRTAGQSSDQKLTNNNRALALNCHSPINEKGAEAEDWRQGKPVRVVRNMKGGKHSKYAPAEGNRYDGIYKVVKYWPERGKSGFLVWRYLLRRDDTEPEPWTREGKDRTRQLGLTMQYPEGYLEALANKEKSRKRPAKALEQGPSSSKTGKSKQKSTGPTLSSPRASKKSKLEPYTLSEQQANLIKEDKGNAKLWDDVLTSLQDGPYQIFLSKVKEAFQCICCQELVFRPVTTVCQHNVCKDCLDRSFRAQVFSCPACRFELDHSSPTRVNQPLQTILNQLFPGYGSGR
2 |  |  |  |  | no binding | Ubiquitin-like, with PHD and RING finger domains 1 (UHRF1), endogenous in mouse ESCs, Q8VDF2 1-782 (protein) MWIQVRTMDGKETHTVNSLSRLTKVQELRKKIEEVFHVEPQLQRLFYRGKQMEDGHTLFDYDVRLNDTIQLLVRQSLALPLSTKERDSELSDSDSGYGVGHSESDKSSTHGEGAAEADDKTVWEDTDLGLYKVNEYVDVRDNIFGAWFEAQVVQVQKRALSEDEPCSSSAVKTSEDDIMYHVKYDDYPEHGVDIVKAKNVRARARTVIPWENLEVGQVVMANYNVDYPRKRGFWYDVEICRKRQTRTARELYGNIRLLNDSQLNNCRIMFVDEVLMIELPKERRPLIASPSQPPPALRNTGKSGPSCRFCKDDENKPCRKCACHVCGGREAPEKQLLCDECDMAFHLYCLKPPLTSVPPEPEWYCPSCRTDSSEVVQAGEKLKESKKKAKMASATSSSRRDWGKGMACVGRTTECTIVPANHFGPIPGVPVGTMWRFRVQVSESGVHRPHVAGIHGRSNDGAYSLVLAGGYEDDVDNGNYFTYTGSGGRDLSGNKRTAGQSSDQKLTNNNRALALNCHSPINEKGAEAEDWRQGKPVRVVRNMKGGKHSKYAPAEGNRYDGIYKVVKYWPERGKSGFLVWRYLLRRDDTEPEPWTREGKDRTRQLGLTMQYPEGYLEALANKEKSRKRPAKALEQGPSSSKTGKSKQKSTGPTLSSPRASKKSKLEPYTLSEQQANLIKEDKGNAKLWDDVLTSLQDGPYQIFLSKVKEAFQCICCQELVFRPVTTVCQHNVCKDCLDRSFRAQVFSCPACRFELDHSSPTRVNQPLQTILNQLFPGYGSGR
